The record followed here is article doi:10.1101/2024.11.19.623840, “Targeting GOF p53 and c-MYC through LZK Inhibition or Degradation Suppresses Head and Neck Tumor Growth” (bioRxiv, 2024).

Numbering of substitutions follows the chain as printed. These are yes or no findings as the source states them, for the method shown. In cells and extracts the contact can be indirect. Some results given as binding are weak or reduced against the parent protein; the word gives no strength. Sequences can lack the tags named with a protein.

Assay [1] deals with T1, Flag-tagged kinase-dead K195M mutant LZK (human) (UniProt O43283).
T1 sequence: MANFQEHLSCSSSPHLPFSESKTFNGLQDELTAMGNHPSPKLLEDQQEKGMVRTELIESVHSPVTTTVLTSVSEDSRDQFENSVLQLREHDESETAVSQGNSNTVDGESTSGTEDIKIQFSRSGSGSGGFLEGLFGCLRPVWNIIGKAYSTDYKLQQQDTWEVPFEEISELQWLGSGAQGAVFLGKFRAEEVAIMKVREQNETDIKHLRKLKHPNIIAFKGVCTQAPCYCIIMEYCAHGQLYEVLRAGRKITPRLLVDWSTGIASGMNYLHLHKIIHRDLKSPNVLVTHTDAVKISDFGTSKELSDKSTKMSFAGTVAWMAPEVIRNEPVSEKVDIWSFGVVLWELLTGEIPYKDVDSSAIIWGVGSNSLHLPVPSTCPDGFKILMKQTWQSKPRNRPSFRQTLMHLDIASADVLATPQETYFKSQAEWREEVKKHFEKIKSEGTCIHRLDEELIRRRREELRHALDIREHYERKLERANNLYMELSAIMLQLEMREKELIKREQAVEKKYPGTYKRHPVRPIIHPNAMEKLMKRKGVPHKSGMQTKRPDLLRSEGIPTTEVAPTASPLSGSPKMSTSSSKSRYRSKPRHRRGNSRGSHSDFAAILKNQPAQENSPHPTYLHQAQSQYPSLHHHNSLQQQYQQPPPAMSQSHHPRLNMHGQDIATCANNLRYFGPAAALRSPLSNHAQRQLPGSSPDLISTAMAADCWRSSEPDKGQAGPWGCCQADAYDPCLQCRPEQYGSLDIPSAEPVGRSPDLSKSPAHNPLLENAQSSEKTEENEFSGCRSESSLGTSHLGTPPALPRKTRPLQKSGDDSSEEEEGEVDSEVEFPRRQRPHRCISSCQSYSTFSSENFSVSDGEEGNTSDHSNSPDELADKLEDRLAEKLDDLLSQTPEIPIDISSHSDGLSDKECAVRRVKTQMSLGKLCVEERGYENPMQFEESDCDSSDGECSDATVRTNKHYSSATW
Put plainly: co-IP; FLAG-tagged LZK constructs transiently transfected in 293T cells; lysis in 1x Triton X-100 cell lysis buffer, lysate at 1 mg/mL; anti-FLAG (rat) antibody 2 h at 4 °C, Dynabeads Protein G 1 h, four washes with lysis buffer; p53 detected by Western blot.

Assay [2] deals with T2, wild-type FLAG-tagged LZK (leucine zipper-bearing kinase, encoded by MAP3K13) (human) (UniProt O43283).
T2 sequence: T1 sequence with M195K
The description is as above.

Turning to p53 (from UniProt P04637 1-393), the binding result in assay [1] and in assay [2] was “binds” throughout.
